PubChem BioAssay AID1259308 | NCATS – 2017
Assay: 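Candidate targets for better recombinant protein yield in mammalian cells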 (primary screen). System: human HEK293 embryonic kidney cells stably expressing firefly luciferase (HEK-CMV-Luc2-Hygro). Knock-down reagent: single siRNA against human genes, 0.8 pmol siRNA per well. Duration: 72 h. Measured: 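Reporter luminescence and viable-cell signal on separate replicate plates, given as percent of non-targeting control and median/MAD z-scores, plus per-cell luciferase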. Direction: total luciferase, z-score: higher = more reporter protein produced. Hit rule: 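Active when the median/MAD z-score for overall luciferase is greater than 3; a gene was taken forward for validation with new siRNAs if at least two of its three siRNAs passed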. Meaning of the calls: active = raised luciferase; inactive = no rise.
The deposit covers about 59,000 reagents; shown is a part drawn at random. About 1,510 of them (2.6%) count as active. 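Calls use total luciferase alone and ignore viability, so some active siRNAs may act by altering cell number.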 Entries without a mark were called inactive. Reagents against one gene are numbered here. Not all columns of the deposit are shown.

gene symbol | reagent | total luciferase, z-score
H2BC14 | 1 | 0.205
H2BC14 | 2 | -1.02
H2BC14 | 3 | 1.35
ADAM10 | 1 | -1.18
ADAM10 | 2 | 0.773
ADAM10 | 3 | -0.315
DHX9 | 1 | 2.44
DHX9 | 2 | -0.378
DHX9 | 3 | 1.24
FNDC8 | 1 | -0.193
FNDC8 | 2 | 0.074
FNDC8 | 3 | 0.484
LMTK1 | 1 | 1.21
LMTK1 | 2 | -0.787
LMTK1 | 3 | 0.459
ZNF311 | 1 | 1.56
ZNF311 | 2 | -0.428
ZNF311 | 3 | -0.158
COPA | 1 | 1.68
COPA | 2 | 2.35
COPA | 3 | 1.15
PIP4K2C | 1 | 0.635
PIP4K2C | 2 | 0.629
PIP4K2C | 3 | 0.129
LINC01148 | 1 | -0.212
LINC01148 | 2 | -1.45
LINC01148 | 3 | -0.845
USP8 | 1 | -0.125
USP8 | 2 | 0.308
USP8 | 3 | 0.331
KHDRBS1 | 1 | 0.398
KHDRBS1 | 2 | 2.75
KHDRBS1 | 3 | -0.816
SMC5 | 1 | -0.0917
SMC5 | 2 | -0.0578
SMC5 | 3 | -0.514
SDHC | 1 | -0.33
SDHC | 2 | 3.24 (active)
SDHC | 3 | 2.96
STAP1 | 1 | -0.471
STAP1 | 2 | 1.65
STAP1 | 3 | 0.238
ZDHHC6 | 1 | 0.122
ZDHHC6 | 2 | -1.2
ZDHHC6 | 3 | 0.0557
POLR2B | 1 | -3.43
POLR2B | 2 | -1.31
POLR2B | 3 | -3.2
ATIC | 1 | 1.86
ATIC | 2 | 0.239
ATIC | 3 | -1.21
GAPDH | 1 | -0.15
GAPDH | 2 | 0.301
GAPDH | 3 | -0.253
MUC2 | 1 | 0.774
MUC2 | 2 | 1.71
MUC2 | 3 | -1.18
UFD1 | 1 | -0.72
UFD1 | 2 | -0.123
UFD1 | 3 | 1.15
MAML3 | 1 | 0.545
MAML3 | 2 | 0.235
MAML3 | 3 | 0.51
HPCAL1 | 1 | -0.491
HPCAL1 | 2 | 1.38
HPCAL1 | 3 | -0.00316
KRT26 | 1 | -0.89
KRT26 | 2 | -0.546
KRT26 | 3 | 1.49
FOXN2 | 1 | 0.102
FOXN2 | 2 | 0.288
FOXN2 | 3 | -1.6
TMEM131 | 1 | 0.252
TMEM131 | 2 | -0.333
TMEM131 | 3 | 0.0598
